From publication PMC12432127 (Scientific Reports, 2025) come the findings set out here.

Strings that start with PEPTIDE1 are HELM notation: dots part the residues, brackets hold end groups and non-standard residues.

A short description of this series: general procedure: Fmoc solid-phase peptide synthesis; Wang resin (Ile-Wang resin); HATU/DIPEA (spacer and chelator coupling). The conditions noted are these: for final HPLC purity: analytical HPLC.
Setting [1] is: whole synthesis, scale of the general procedure 25 µmol.

As for “^natGa-f-MVPIK(Ahx-DOTA)I [natGa-f-MVPIK(Ahx-DOTA)I]”, where the note is “late stage modification step”, the step yield stood at 73% and the “final HPLC purity” value was determined as 66%.

Regarding “PEPTIDE1{[For].M.V.P.I.K.I}|PEPTIDE2{[DOTA].[Ahx]}$PEPTIDE1,PEPTIDE2,6:R3-2:R2$$$V2.0”, the isolated mass (whole synthesis) was found to be 9.45 mg. The “final HPLC purity” value under setting [1] is given as 99%. Also, the isolated yield is given as 28 ± 6% (n = 6) (whole synthesis, overall, scale of the general procedure 25 µmol) and 31% under setting [1].

Take “^natLu-f-MVPIK(Ahx-DOTA)I [natLu-f-MVPIK(Ahx-DOTA)I]”: under “late stage modification step”, the step yield is on record as 80% and the “final HPLC purity” value is reported as 99%.
